Results are given in words; binding and its absence hold for the method and conditions named. In cells and extracts the contact can be indirect. Some binding calls cover weakened binding; strength is not graded here.

By UniProt entry, the sequences of proteins in these tests, tags left out. Residues count along the entry.
UniProt P18848: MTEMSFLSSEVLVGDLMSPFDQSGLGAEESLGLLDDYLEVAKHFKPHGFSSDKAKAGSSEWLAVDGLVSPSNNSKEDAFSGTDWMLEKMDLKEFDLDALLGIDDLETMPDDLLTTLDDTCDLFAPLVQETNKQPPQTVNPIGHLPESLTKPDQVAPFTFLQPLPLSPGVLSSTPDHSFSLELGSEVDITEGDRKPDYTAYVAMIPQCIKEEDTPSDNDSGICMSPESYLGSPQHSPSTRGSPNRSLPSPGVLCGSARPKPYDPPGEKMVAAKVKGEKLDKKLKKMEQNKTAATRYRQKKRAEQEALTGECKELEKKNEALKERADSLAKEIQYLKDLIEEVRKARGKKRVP
UniProt P11021, residues 19-654: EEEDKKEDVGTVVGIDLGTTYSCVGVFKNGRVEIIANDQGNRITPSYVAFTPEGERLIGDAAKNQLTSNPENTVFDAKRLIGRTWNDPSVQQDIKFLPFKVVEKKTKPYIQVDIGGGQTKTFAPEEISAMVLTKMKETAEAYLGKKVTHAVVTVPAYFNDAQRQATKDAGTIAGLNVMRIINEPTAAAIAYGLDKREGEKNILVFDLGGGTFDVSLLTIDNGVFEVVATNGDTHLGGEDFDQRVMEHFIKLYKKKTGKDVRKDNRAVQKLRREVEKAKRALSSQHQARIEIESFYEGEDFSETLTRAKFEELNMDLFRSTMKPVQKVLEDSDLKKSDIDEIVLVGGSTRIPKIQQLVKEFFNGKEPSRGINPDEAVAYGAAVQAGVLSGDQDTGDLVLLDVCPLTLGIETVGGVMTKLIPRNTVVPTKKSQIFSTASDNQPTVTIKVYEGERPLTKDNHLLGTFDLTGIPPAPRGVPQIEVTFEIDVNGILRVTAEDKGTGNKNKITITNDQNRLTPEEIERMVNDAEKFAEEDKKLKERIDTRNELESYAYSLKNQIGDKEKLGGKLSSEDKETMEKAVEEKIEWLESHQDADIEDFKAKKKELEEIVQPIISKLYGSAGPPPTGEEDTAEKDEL

From paper PMC12006179 come the findings set out here.

The target of the assay is Flag-ATF4 (activating transcription factor 4) (UniProt P18848). The experiment in a line: co-IP; HEK293T cells co-transfected with Flag-ATF4 and HA-HSPA5; IP assays to enrich Flag-ATF4 and HA-HSPA5, Western blot. In general terms: A western blot detects proteins with antibodies after separation by electrophoresis.

With “HA-HSPA5 (heat shock protein family A member 5) (from UniProt P11021 19-654)”, the binding entry is on record as “binds”.
